No constants are given. Whether binding was seen depends on the method and setting. In cells and extracts the contact can be indirect. Some entries that bind do so weakly or less than the wild type.

By UniProt entry, the sequences of proteins in these tests, tags left out.
UniProt O95271: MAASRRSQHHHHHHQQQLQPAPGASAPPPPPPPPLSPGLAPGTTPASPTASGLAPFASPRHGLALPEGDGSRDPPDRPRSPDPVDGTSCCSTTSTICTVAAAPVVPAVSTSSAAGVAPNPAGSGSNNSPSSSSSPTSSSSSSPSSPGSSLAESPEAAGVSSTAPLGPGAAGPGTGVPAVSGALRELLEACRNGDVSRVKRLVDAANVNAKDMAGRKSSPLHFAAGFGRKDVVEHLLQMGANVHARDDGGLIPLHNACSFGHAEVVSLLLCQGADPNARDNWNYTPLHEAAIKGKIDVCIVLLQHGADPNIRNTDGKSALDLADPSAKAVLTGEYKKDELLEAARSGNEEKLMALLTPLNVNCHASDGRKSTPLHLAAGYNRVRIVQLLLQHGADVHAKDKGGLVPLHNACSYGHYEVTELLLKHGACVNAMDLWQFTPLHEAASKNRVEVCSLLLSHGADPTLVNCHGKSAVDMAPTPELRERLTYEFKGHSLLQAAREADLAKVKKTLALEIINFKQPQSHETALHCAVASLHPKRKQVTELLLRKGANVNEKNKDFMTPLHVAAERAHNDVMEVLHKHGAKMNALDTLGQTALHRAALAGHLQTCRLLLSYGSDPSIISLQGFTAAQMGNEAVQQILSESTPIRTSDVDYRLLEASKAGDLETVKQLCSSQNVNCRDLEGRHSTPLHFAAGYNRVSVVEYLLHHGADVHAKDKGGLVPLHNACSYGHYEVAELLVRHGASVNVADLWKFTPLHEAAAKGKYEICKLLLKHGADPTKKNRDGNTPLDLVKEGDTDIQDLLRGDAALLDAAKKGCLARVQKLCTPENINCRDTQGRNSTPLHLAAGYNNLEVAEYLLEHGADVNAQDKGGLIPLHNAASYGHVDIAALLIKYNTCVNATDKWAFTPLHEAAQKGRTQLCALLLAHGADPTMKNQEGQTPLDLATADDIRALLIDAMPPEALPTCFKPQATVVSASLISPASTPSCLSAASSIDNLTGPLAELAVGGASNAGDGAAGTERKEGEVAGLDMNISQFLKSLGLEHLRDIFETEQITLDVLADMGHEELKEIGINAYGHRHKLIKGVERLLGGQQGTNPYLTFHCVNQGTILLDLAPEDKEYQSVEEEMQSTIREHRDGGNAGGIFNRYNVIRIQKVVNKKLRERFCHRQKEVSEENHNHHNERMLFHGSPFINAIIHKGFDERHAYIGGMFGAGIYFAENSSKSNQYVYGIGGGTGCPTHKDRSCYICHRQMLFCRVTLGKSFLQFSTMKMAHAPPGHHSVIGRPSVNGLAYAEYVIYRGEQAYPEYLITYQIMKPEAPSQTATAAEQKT
UniProt O70239: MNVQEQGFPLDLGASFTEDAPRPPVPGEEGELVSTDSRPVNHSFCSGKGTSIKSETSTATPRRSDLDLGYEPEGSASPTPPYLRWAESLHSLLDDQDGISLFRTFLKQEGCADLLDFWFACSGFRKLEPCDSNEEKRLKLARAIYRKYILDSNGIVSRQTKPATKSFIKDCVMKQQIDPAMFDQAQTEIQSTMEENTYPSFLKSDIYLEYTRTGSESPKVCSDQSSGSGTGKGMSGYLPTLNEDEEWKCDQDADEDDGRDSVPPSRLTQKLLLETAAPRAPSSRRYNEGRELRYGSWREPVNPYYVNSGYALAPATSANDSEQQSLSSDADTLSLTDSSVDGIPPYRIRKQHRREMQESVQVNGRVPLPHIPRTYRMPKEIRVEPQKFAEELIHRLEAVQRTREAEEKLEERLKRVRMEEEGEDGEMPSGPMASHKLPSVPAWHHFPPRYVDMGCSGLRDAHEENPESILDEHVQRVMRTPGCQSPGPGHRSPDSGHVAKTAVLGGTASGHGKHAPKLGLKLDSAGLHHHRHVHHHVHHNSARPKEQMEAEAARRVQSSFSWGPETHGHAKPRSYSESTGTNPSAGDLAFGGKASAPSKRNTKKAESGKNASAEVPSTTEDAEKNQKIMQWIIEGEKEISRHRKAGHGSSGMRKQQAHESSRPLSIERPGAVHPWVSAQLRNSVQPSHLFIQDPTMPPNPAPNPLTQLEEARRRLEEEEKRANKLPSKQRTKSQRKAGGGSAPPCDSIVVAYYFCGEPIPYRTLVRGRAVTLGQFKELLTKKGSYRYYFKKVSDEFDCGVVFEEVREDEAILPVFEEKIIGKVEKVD

The target in the test is Flag-tagged human tankyrase (Flag-TNKS, human tankyrase 1) (human) (UniProt O95271). In words: co-IP; Flag-TNKS and associated proteins precipitated with anti-Flag antibodies on G/A beads from lysates of U2OS cells expressing GFP-axin alone or with Flag-tankyrase; washed on beads, eluted by denaturation; western blot for axin and tankyrase.

As for “GFP-tagged rat axin (GFP-axin, 1-827) (from UniProt O70239 1-827)”, the binding result was “binds”.

Values taken from publication PMC10652037.
